Laboratory results published in PubChem BioAssay AID256 (DTP/NCI, 2004).
The list is a part of this screen's results and no random one: it is rich in T/C values a quarter to a half above the control, in often repeated tests (any T/C) and in doses without a T/C. Further doses and runs are listed elsewhere. T/C: endpoint of the treated group in % of that of the vehicle group. Some entries give survivors of the animals treated and no T/C: the source holds a T/C of zero for them, seemingly a mark for toxic or unscored doses. Some survivor counts are full or nearly so, which does not show that the dose was tolerated: survival well below the control is almost never listed, so the zero probably covers shortened survival too. Survivors were counted at the toxicity check, usually on the fifth day, unless a day is given; later deaths do not show. Schedule codes are those of the source, read here as Q, the interval in days (D) or hours (H), X, the number of doses. Some entries hold several experiments; the results are listed from low to high. Some schedule codes hold Z or #, which are not explained here. For survival time, the PubChem record calls one and a half times the control and up active, and a quarter to a half above the control has no call in these data; cut-offs in other NCI protocols can differ.

Tested on: CD2F1 mice, L1210 leukemia ip, survival T/C
Assay: NCI In Vivo Anticancer Drug Screen. Data for tumor model L1210 Leukemia (intraperitoneal) in CD2F1 (CDF1) mice
Details: higher T/C = longer survival
Summary of the method: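 Mice carrying a transplanted tumor received test compound or vehicle alone. The value is the measurement in the treated group divided by that in the vehicle-treated control group.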

[1] = T/C endpoint: mean survival time, dose: 200.0 mg/kg/injection, schedule: Q01DX001 (ip), vehicle: saline with Tween-80
[2] = T/C endpoint: mean survival time, dose: 400.0 mg/kg/injection, schedule: Q01DX001 (ip), vehicle: saline with Tween-80
[3] = T/C endpoint: mean survival time, dose: 50.0 mg/kg/injection, schedule: Q04DX002 (ip), vehicle: saline with Tween-80
[4] = T/C endpoint: mean survival time, dose: 100.0 mg/kg/injection, schedule: Q04DX002 (ip), vehicle: saline with Tween-80
[5] = T/C endpoint: mean survival time, dose: 200.0 mg/kg/injection, schedule: Q04DX002 (ip), vehicle: saline with Tween-80
[6] = T/C endpoint: mean survival time, dose: 100.0 mg/kg/injection, schedule: Q01DX009 (ip), vehicle: saline with Tween-80
[7] = T/C endpoint: mean survival time, dose: 200.0 mg/kg/injection, schedule: Q01DX009 (ip), vehicle: saline with Tween-80
[8] = T/C endpoint: mean survival time, dose: 400.0 mg/kg/injection, schedule: Q04DX002 (ip), vehicle: saline with Tween-80
[9] = T/C endpoint: mean survival time, dose: 200.0 mg/kg/injection, schedule: Q04DX003 (ip), vehicle: saline
[10] = T/C endpoint: mean survival time, dose: 400.0 mg/kg/injection, schedule: Q04DX003 (ip), vehicle: saline

CN(C)N=Nc1ccc(C(=O)O)cc1
T/C (T/C endpoint: mean survival time, dose: 100.0 mg/kg/injection, schedule: Q01DX009 (ip), vehicle: saline): 142 % of control | T/C (T/C endpoint: mean survival time, dose: 150.0 mg/kg/injection, schedule: Q01DX009 (ip), vehicle: saline): 130 % of control | survivor count (T/C endpoint: mean survival time, dose: 400.0 mg/kg/injection, schedule: Q01DX009 (ip), vehicle: saline): 5 of 6 | T/C (T/C endpoint: median survival time, dose: 25.0 mg/kg/injection, schedule: Q01DX005 (ip), vehicle: saline): 127 % of control | T/C (T/C endpoint: median survival time, dose: 50.0 mg/kg/injection, schedule: Q01DX005 (ip), vehicle: saline): 139 % of control | T/C (T/C endpoint: median survival time, dose: 60.0 mg/kg/injection, schedule: Q01DX005 (ip), vehicle: saline): 134 % of control | T/C (T/C endpoint: median survival time, dose: 100.0 mg/kg/injection, schedule: Q01DX005 (ip), vehicle: saline): 146 % of control | T/C (T/C endpoint: median survival time, dose: 200.0 mg/kg/injection, schedule: Q01DX005 (ip), vehicle: saline): 133 % of control | survivor count (T/C endpoint: median survival time, dose: 277.7 mg/kg/injection, schedule: Q01DX005 (ip), vehicle: saline): 5 of 6 | survivor count (T/C endpoint: median survival time, dose: 400.0 mg/kg/injection, schedule: Q01DX005 (ip), vehicle: saline): 2 of 6 and 6 of 6

Cc1ccc(S(=O)(=O)NN=C(c2ccccc2)c2ccccc2)cc1
survivor count (T/C endpoint: mean survival time, dose: 400.0 mg/kg/injection, schedule: Q01DX009 (ip), vehicle: water): 5 of 6

CC1(C)N=C(N)N=C(N)N1c1ccc(OCCCCNC(=O)Nc2ccc(S(=O)(=O)F)cc2)c(Cl)c1
survivor count [1]: 0 of 6 | survivor count [2]: 0 of 6

CC(C)(C)C1(C)CC1(Br)Br (stereo unspecified)
survivor count (T/C endpoint: mean survival time, dose: 400.0 mg/kg/injection, schedule: Q04DX003 (ip), vehicle: saline with Tween-80): 6 of 6

c1cnc(N2CC2)nn1
T/C (T/C endpoint: mean survival time, dose: 400.0 mg/kg/injection, schedule: Q01DX001 (ip), vehicle: saline): 125 % of control

CC(C[P+](c1ccccc1)(c1ccccc1)c1ccccc1)C(O)(C(=O)c1ccccc1)c1ccccc1 (stereo unspecified)
survivor count (T/C endpoint: mean survival time, dose: 25.0 mg/kg/injection, schedule: Q01DX009 (ip), vehicle: saline with Tween-80): 5 of 6

CCOc1nc2nc[nH]c(=O)c2cc1C#N
survivor count [3]: 1 of 3 | survivor count [4]: 0 of 3 | survivor count [5]: 0 of 3 | survivor count [2]: 0 of 6

COc1ccc2c[n+](C)c3c4cc(OC)c(OC)cc4ccc3c2c1
survivor count (T/C endpoint: mean survival time, dose: 50.0 mg/kg/injection, schedule: Q04DX003 (ip), vehicle: saline with Tween-80): 1 of 3 | survivor count (T/C endpoint: mean survival time, dose: 100.0 mg/kg/injection, schedule: Q04DX003 (ip), vehicle: saline with Tween-80): 1 of 3

c1nc(SSc2ncnc3nc[nH]c23)c2[nH]cnc2n1
T/C (T/C endpoint: mean survival time, dose: 1.9 mg/kg/injection, schedule: Q01DX009 (ip), vehicle: acetone): 134 % of control | T/C (T/C endpoint: mean survival time, dose: 2.9 mg/kg/injection, schedule: Q01DX009 (ip), vehicle: acetone): 139 % of control | T/C (T/C endpoint: mean survival time, dose: 4.4 mg/kg/injection, schedule: Q01DX009 (ip), vehicle: saline): 137 % of control | T/C (T/C endpoint: mean survival time, dose: 6.6 mg/kg/injection, schedule: Q01DX009 (ip), vehicle: saline): 128 % of control | T/C (T/C endpoint: mean survival time, dose: 44.0 mg/kg/injection, schedule: Q01DX001 (ip), vehicle: saline with Tween-80): 145 % of control | survivor count (T/C endpoint: mean survival time, dose: 50.0 mg/kg/injection, schedule: Q01DX009 (ip), vehicle: saline with Tween-80): 4 of 6 | survivor count [6]: 5 of 6

CC(=O)CSc1ncnc2nc[nH]c12
T/C (T/C endpoint: mean survival time, dose: 125.0 mg/kg/injection, schedule: Q01DX015 (ip), vehicle: saline): 126 % of control | T/C (T/C endpoint: mean survival time, dose: 500.0 mg/kg/injection, schedule: Q01DX015 (ip), vehicle: saline): 130 % of control

O=C(C[n+]1cc2ccccc2cc1Cl)c1ccccc1
survivor count (T/C endpoint: mean survival time, dose: 400.0 mg/kg/injection, schedule: Q04DX003 (ip), vehicle: Klucel (hydroxypropylcellulose) (HPC)): 4 of 6

O=[N+]([O-])c1ccc(/C=N/O)o1
survivor count (T/C endpoint: mean survival time, dose: 225.0 mg/kg/injection, schedule: Q01DX001 (ip), vehicle: saline): 3 of 6 | survivor count (T/C endpoint: mean survival time, dose: 335.0 mg/kg/injection, schedule: Q01DX001 (ip), vehicle: saline): 1 of 6

CSc1ncnc2c1cnn2C1OC(CO)C(O)C1O (stereo unspecified)
survivor count (T/C endpoint: mean survival time, dose: 400.0 mg/kg/injection, schedule: Q01DX005 (ip), vehicle: other): 2 of 5

CCOC(=O)Cc1c(C)[nH]c2c(C)ccc(C)c12
survivor count (T/C endpoint: mean survival time, dose: 200.0 mg/kg/injection, schedule: Q01DX001 (ip), vehicle: other): 2 of 4 | survivor count (T/C endpoint: mean survival time, dose: 400.0 mg/kg/injection, schedule: Q01DX001 (ip), vehicle: other): 3 of 4

CC(C)[CH2][Sn](=[O])[OH]
survivor count [7]: 3 of 3

S=C(Nc1ccccc1)Nc1ccc(NC(=S)Nc2ccccc2)cc1
survivor count [7]: 6 of 6

CCCCCCCCCCCCCCCCCCN (tested in a mixture with another compound)
survivor count [8]: 1 of 3

Cc1ccc(NC(=O)Nc2cccc(CNC(=O)COc3ccc(Cl)cc3C(=O)O)c2)cc1S(=O)(=O)F
survivor count (T/C endpoint: mean survival time, dose: 100.0 mg/kg/injection, schedule: Q01DX001 (ip), vehicle: saline with Tween-80): 6 of 6

CC1CCC(N=C2OCCN2N=O)CC1 (stereo unspecified)
survivor count (T/C endpoint: mean survival time, dose: 200.0 mg/kg/injection, schedule: Q01DX001 (ip), vehicle: distilled water + Tween-80): 0 of 6 | survivor count (T/C endpoint: mean survival time, dose: 400.0 mg/kg/injection, schedule: Q01DX001 (ip), vehicle: distilled water + Tween-80): 0 of 6 | survivor count (T/C endpoint: mean survival time, dose: 800.0 mg/kg/injection, schedule: Q01DX001 (ip), vehicle: distilled water + Tween-80): 0 of 6

CN=C(N)c1ccc(N=C(N)c2ccc(N=C(N)c3ccc(NC(=O)c4ccc(C(=O)Nc5ccc(C(N)=Nc6ccc(C(N)=Nc7ccc(C(N)=NC)cc7)cc6)cc5)cc4)cc3)cc2)cc1
survivor count (T/C endpoint: mean survival time, dose: 125.0 mg/kg/injection, schedule: Q01DX Z (ip), vehicle: water): 2 of 6 | survivor count (T/C endpoint: mean survival time, dose: 250.0 mg/kg/injection, schedule: Q01DX Z (ip), vehicle: water): 0 of 6 | survivor count (T/C endpoint: mean survival time, dose: 500.0 mg/kg/injection, schedule: Q01DX Z (ip), vehicle: water): 0 of 6

CC1=NN(c2ccccc2)C(=O)C1(Br)Br
survivor count [6]: 1 of 6

COc1cc(C=C2C(=O)C=CC2=O)ccc1O
survivor count [3]: 1 of 3 | survivor count [4]: 0 of 3 | survivor count [5]: 0 of 3

NC(=O)NC1CC1(c1ccccc1)c1ccccc1 (stereo unspecified)
survivor count (T/C endpoint: mean survival time, dose: 600.0 mg/kg/injection, schedule: Q01DX001 (ip), vehicle: other): 0 of 6

O=C(NC(=S)Nc1cc(Cl)ccc1O)c1cccc(Br)c1
survivor count [1]: 3 of 3 | survivor count [2]: 3 of 3

O=C(CI)Nc1ccc(Br)cc1
survivor count (T/C endpoint: mean survival time, dose: 100.0 mg/kg/injection, schedule: Q04DX003 (ip), vehicle: saline): 5 of 6 | survivor count [9]: 0 of 6 | survivor count [10]: 0 of 6

CC(C)c1ccc(C(=O)O)cc1S(=O)(=O)Cl
survivor count [9]: 0 of 6 | survivor count [10]: 1 of 6

COc1ccc(Nc2ccc(C(=C3C=CC(=[N+](C)CCC#N)C=C3)c3ccc(N(C)CCC#N)cc3)cc2)cc1
survivor count [5]: 3 of 3 | survivor count [8]: 3 of 3
